{"source": "PubChem BioAssay AID1224830 (NIAID, 2016)", "assay": "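Genes whose knock-down alters the TNF-alpha reporter response to LPS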 (primary screen)", "cells": "human THP-1 monocytic leukaemia cells, TNF dual-luciferase reporter clone, PMA-differentiated to macrophage-like cells", "reagents": "siRNA pool against human genes, 50 nM", "duration": "LPS for 4 h, given about 3 days after siRNA transfection", "conditions": "bacterial LPS (TLR4 ligand), 10 ng/ml", "measured": "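Ratio of firefly to renilla light, scaled to the plate median and expressed as a robust z-score per replicate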", "scale": "TNF reporter robust z-score: higher = stronger TNF reporter response to LPS", "hit rule": "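a well is active when its z-score exceeds 2.8 or falls below -1.5; control wells carry no call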", "note": "This is a random part of about 18,000 reagents tested. Of all reagents, about 2,900 (16%) got an active call. 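Calls are made per well; low scores hint the gene aids the LPS response, high scores that it dampens it.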 Repeated entries: four replicate wells of each siRNA pool."}
{"gene": "PDE9A (phosphodiesterase 9A)", "TNF reporter robust z-score": -0.58, "Outcome": "inactive"}
{"gene": "PDE9A (phosphodiesterase 9A)", "TNF reporter robust z-score": -0.75, "Outcome": "inactive"}
{"gene": "PDE9A (phosphodiesterase 9A)", "TNF reporter robust z-score": 1.23, "Outcome": "inactive"}
{"gene": "GZMM (granzyme M)", "TNF reporter robust z-score": 1.82, "Outcome": "inactive"}
{"gene": "GZMM (granzyme M)", "TNF reporter robust z-score": 0.1, "Outcome": "inactive"}
{"gene": "GZMM (granzyme M)", "TNF reporter robust z-score": 1.1, "Outcome": "inactive"}
{"gene": "GZMM (granzyme M)", "TNF reporter robust z-score": -0.95, "Outcome": "inactive"}
{"gene": "OSM (oncostatin M)", "TNF reporter robust z-score": 0.88, "Outcome": "inactive"}
{"gene": "OSM (oncostatin M)", "TNF reporter robust z-score": 0.35, "Outcome": "inactive"}
{"gene": "OSM (oncostatin M)", "TNF reporter robust z-score": 0.73, "Outcome": "inactive"}
{"gene": "OSM (oncostatin M)", "TNF reporter robust z-score": 0.02, "Outcome": "inactive"}

Next part, starting with the last 2 of the part before.
{"gene": "OSM (oncostatin M)", "TNF reporter robust z-score": 0.73, "Outcome": "inactive"}
{"gene": "OSM (oncostatin M)", "TNF reporter robust z-score": 0.02, "Outcome": "inactive"}
{"gene": "STEAP1 (STEAP family member 1)", "TNF reporter robust z-score": -0.27, "Outcome": "inactive"}
{"gene": "STEAP1 (STEAP family member 1)", "TNF reporter robust z-score": 0.74, "Outcome": "inactive"}
{"gene": "STEAP1 (STEAP family member 1)", "TNF reporter robust z-score": -0.18, "Outcome": "inactive"}
{"gene": "STEAP1 (STEAP family member 1)", "TNF reporter robust z-score": -0.43, "Outcome": "inactive"}
{"gene": "PSMB4 (proteasome 20S subunit beta 4)", "TNF reporter robust z-score": -1.87, "Outcome": "active"}
{"gene": "PSMB4 (proteasome 20S subunit beta 4)", "TNF reporter robust z-score": -1.43, "Outcome": "inactive"}
{"gene": "PSMB4 (proteasome 20S subunit beta 4)", "TNF reporter robust z-score": -1.62, "Outcome": "active"}
{"gene": "PSMB4 (proteasome 20S subunit beta 4)", "TNF reporter robust z-score": -1.58, "Outcome": "active"}
